Assay results taken from patent US20250177392A1, “BROAD SPECTRUM INHIBITORS OF CYTOMEGALOVIRUS” (MICROBIOTIX, INC., priority 2022, published 2025).
Some of these results come from one statement about several compounds together.

Tested on: cytomegalovirus
Assay: Cytomegalovirus infection inhibition, summary statements (standard assays)
Assay type: cell-based

SMILES	concentrations that limit virus infection [µM]
Cc1nc(Nc2ccc(NC(=O)c3ccco3)cc2)cc(N2CCCC2)n1 [MBX-4992]	2.8 to 8.6
Cc1nc(Nc2cccc(NC(=O)c3ccco3)c2)cc(N2CCCCC2)n1 [MBXC-4336]	2.8 to 8.6
